Experimental data: PubChem BioAssay AID493014 (National Center for Advancing Translational Sciences (NCATS), 2011)
Some of the results follow. Further columns of the screen follow, without active or inactive calls. Most of these compounds were active or inconclusive in the main read-out, so they are no random draw. The note in brackets gives the kind of curve behind each potency; many fits are weak.

Experiment: qHTS Assay to Find Inhibitors of Chronic Active B-Cell Receptor Signaling
Conditions: ABC-DLBCL IkBa-CBG/CBR reporter, luminescence ratio (green luciferase fused to IkBa over red control in TMD8 lymphoma cells), 4 h
Summary of the method: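 Compounds up to 46 uM were incubated four hours with TMD8 cells whose green CBG68 luciferase is fused to IkappaBalpha; red CBR luminescence normalised the signal, and concentration-effect curves were fitted to fusion, red and ratio data.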

[1] = measured here: CBR red luminescence, cell number

| Compound | AC50 [1] | AC50 (measured here: IkBa-CBG green luminescence) |
| --- | --- | --- |
| CCCNC(=O)C(Cc1ccccc1)NS(=O)(=O)c1ccc2c(c1)CCC(=O)N2 (configuration not stated) | 5.8 µM [rising, single point] | – |
| NC(=O)c1nsc(C(=O)N(c2cccc(F)c2)C(C(=O)NCc2ccccc2)c2ccc(O)cc2)c1N (configuration not stated) | 2.51 µM [rising, partial curve] | – |
| CCOCCn1c(CN2CCc3ccccc3C2)nc2c1c(=O)n(C)c(=O)n2C | 0.631 µM [rising, partial curve, poor fit] | – |
| O=C(O)CSCC(=O)N1CCc2c([nH]c3ccccc23)C1C(F)(F)F (configuration not stated) | 35.5 µM [rising, single point] | – |
| CS(=O)(=O)C1=NSC2=NC(=O)/C(=C\c3cccn3-c3ccc(Cl)cc3)C(=N)N21 | 23.1 µM [rising, single point] | – |
| CSc1nc(-c2ccccc2F)c(C#N)c(=O)n1C | 31.6 µM [falling, single point] | – |
| CCCC(=O)Nc1ccc(C(=O)Nc2nc(CC(=O)OCC)cs2)cc1 | 29.1 µM [falling, single point] | – |
| CCOC(=O)N1CCN(S(=O)(=O)c2ccc(OC)c(Cl)c2Cl)CC1 | 6.51 µM [rising, single point] | – |
| COc1ccc(S(=O)(=O)n2oc(=O)cc2-c2ccccc2)cc1 | 16.4 µM [rising, partial curve, poor fit] | – |
| O=C(Nc1ccc(Cl)cn1)c1cccc(S(=O)(=O)N2CCCCC2)c1 | 0.355 µM [falling, full curve, poor fit] | – |
| COc1ccc(-c2cc(C(F)(F)F)nc(S(=O)(=O)CCCC(=O)Nc3cccc(O)c3)n2)cc1OC | 10 µM [falling, partial curve] | 35.5 µM [rising, partial curve, poor fit] |
| CC(Sc1nn(-c2ccc(F)cc2)c(=S)s1)C(=O)c1c(N)n(C)c(=O)n(C)c1=O (configuration not stated) | 32.6 µM [falling, single point] | – |
| Cc1cccc(Nc2nc3ccccc3n3nnnc23)c1 | 0.282 µM [rising, full curve] | – |
| COc1ccccc1N1CCN(C(=O)c2oc3c(c2C)C(=O)CC(C)(C)C3)CC1 | 35.5 µM [falling, partial curve, poor fit] | – |
| COc1cc(NC(=O)c2cc(-c3cccs3)on2)cc(OC)c1OC | 22.4 µM [falling, single point] | – |
| CCOc1ccc(S(=O)(=O)NCCc2sc3nc(-c4ccc(F)cc4)nn3c2C)cc1 | 22.4 µM [falling, single point] | – |
| COCCCn1c(SCC(N)=O)nnc1-c1ccccc1 | 28.2 µM [falling, single point] | – |
| COC(=O)c1cc(=O)n(Cc2cccs2)c(=Nc2ccccc2)s1 | 4.47 µM [falling, partial curve] | – |
| N#Cc1c(N2CCCCC2)nc(N)c2c(N)nc3c(c12)CC(c1ccccc1)O3 (configuration not stated) | 0.794 µM [falling, full curve] | – |
| NC(N)=NC(N)=NCCc1ccccc1 | 3.16 µM [rising, partial curve, poor fit] | – |
| O=C(N/N=C/c1cccc(O)c1)c1ccccc1O | 1 µM [falling, full curve, poor fit] | – |

| Compound | AC50 [1] | AC50 (measured here: IkBa-CBG green luminescence) |
| --- | --- | --- |
| CSCCNC(=O)c1ccc2nc(C3CCCCC3)oc2c1 | 35.5 µM [rising, single point] | – |
| c1ccc2cc(CCCc3cc4ccccc4cn3)ncc2c1 | 0.517 µM [rising, full curve, poor fit] | – |
| COc1ccccc1N1CCN(Cc2ccsc2)CC1 | 7.94 µM [rising, partial curve, poor fit] | – |
| CC1CC(=O)Nc2cc([N+](=O)[O-])ccc2N1 (configuration not stated) | 39.8 µM [rising, partial curve, poor fit] | – |
| C=CCN1C(=O)C(=O)N(CC(=O)c2ccc3c(c2)CCCC3)C1=O | 14.6 µM [rising, partial curve, poor fit] | – |
| O=C(c1cnn2ccccc12)N1CCc2ccccc21 | 14.6 µM [falling, partial curve, poor fit] | – |
| N#C/C(=C\c1cn(CCOc2ccccc2)c2ccccc12)C(=O)NCc1cccs1 | 7.31 µM [rising, partial curve, poor fit] | – |
| O=C(c1ccc2ncsc2c1)N1CCN(c2ccccc2Cl)CC1 | 10 µM [falling, partial curve, poor fit] | – |
| Cc1nc(NC(=O)c2ccccc2)sc1Cc1ccc2c(c1)OCO2 | 8.2 µM [falling, partial curve] | – |
| COc1ccc(Cl)cc1NC(=S)NC(=O)c1ccco1 | 3.26 µM [rising, full curve, poor fit] | – |
| COc1ccc(OC)c(CNc2c(C=O)c(=O)[nH]c3ccccc23)c1 | 35.5 µM [falling, single point] | – |
| O=C1N=C(N2CCc3ccccc3C2)S/C1=C\c1cccc(O)c1 | 20.6 µM [falling, single point] | – |
| Cc1ccc2nsnc2c1NC(=O)COc1ccccc1F | 2.24 µM [rising, full curve, poor fit] | – |
| O=C(CCCn1c(=O)c2ccccc2n(Cc2cccc(F)c2)c1=O)NC1CCN(Cc2ccccc2)CC1 | 11.2 µM [falling, single point] | – |
| CCSc1ccccc1C(=O)N1CCCC1 | 18.4 µM [rising, partial curve, poor fit] | – |
| O=C1Nc2ccccc2C1=Nc1ccc(S(=O)(=O)Nc2nccs2)cc1 | 3.98 µM [rising, partial curve, poor fit] | – |
| Cc1cccc(OCCCC(=O)Nc2nc3ccccc3[nH]2)c1 | 11.2 µM [rising, partial curve] | – |
| CCOC(=O)O[C@]1(C(=O)COC(=O)CC)CC[C@H]2[C@@H]3CCC4=CC(=O)C=C[C@]4(C)[C@H]3[C@@H](O)C[C@@]21C | 0.00517 µM [rising, full curve, poor fit] | – |
| O=C(Nc1nccs1)c1ccc2ccccc2n1 | 10 µM [falling, partial curve, poor fit] | – |
| COCCNC(=O)Cn1cnc2sc(C)c(S(=O)(=O)N3CCC(C)CC3)c2c1=O | 2.82 µM [falling, single point] | – |

As a short view, some entries already given:

| Compound | AC50 [1] | AC50 (measured here: IkBa-CBG green luminescence) |
| --- | --- | --- |
| O=C(CCCn1c(=O)c2ccccc2n(Cc2cccc(F)c2)c1=O)NC1CCN(Cc2ccccc2)CC1 | 11.2 µM [falling, single point] | – |
| CCSc1ccccc1C(=O)N1CCCC1 | 18.4 µM [rising, partial curve, poor fit] | – |
| O=C1Nc2ccccc2C1=Nc1ccc(S(=O)(=O)Nc2nccs2)cc1 | 3.98 µM [rising, partial curve, poor fit] | – |
